Results taken from patent publication US10807958B2, “1,4-bis(3-aminopropyl)piperazine derivative and its use” (INSERM (Institut National de la Sante et de la Recherche …, priority 2015, dated 2020).

Test system: Wild-type C57BL/6J animals
Test: Morris water maze spatial memory, wild-type animals
Assay type: in vivo, mouse
Details: 0.5 mg/kg
Excerpt: Wild-type C57BL/6J animals of 3 months were purchased at Charles Rivers Laboratories (France) and were allow to acclimate in the animal facility for at least one week before any treatment. Thy-Tau22 transgenic colonies (C57BL/6J genetic background) were obtained by crossing heterozygous Thy-Tau22 males with C57BL/6 WT females. […] In this model, a progressive development of NFT is observed in the hippocampus and amygdala, which parallels behavioral impairments (Schindowski et al., 2006). Furthermorever, in the hippocampus, hyper- and abnormally phosphorylated Tau species accumulate within the somato-dendritic area (Schindowski et al., 2006).
For animal treatment, animals were randomly distributed and the compound of Formula I was given in the drinking water at final concentration of 0.5 or 1 mg/kg. Drinking bottles were changed once per week, volume consumption was measured along the treatment period. Food consumption and body weight were assessed. […]
Before any behavioral test, exploratory and locomotion of treated and untreated animal were evaluated in a Open field (OF) 25 cm×25 cm arena. […] The anxiety, which could interfere with memory test, was evaluated by the elevated plus maze (EPM). […]
Spatial learning and memory abilities were assessed in a standard hidden-platform acquisition and retention version of the Morris water maze task (Van der Jeugd et al., 2013). […]

With `CC(C)CN(CCCN1CCN(CCCNc2c3c(nc4ccccc24)CCCC3)CC1)CC(C)C` [compound of Formula I, N-[3-(4-{3-[Bis(2-methylpropyl)amino]propyl}piperazin-1-yl)propyl]-1,2,3,4-tetrahydroacridin-9-amine] the “cognitive performance of wild-type animals (preference for target quadrant)” value (FIG. 4B) was “did not impact” and the “probe test, effect on spatial memory in wild-type animals” value (probe test 72 hours after last learning day) was “no significant effect”.
